39 compounds from PubChem BioAssay can be followed below.

Values joined by “and” are separate entries in the source; they are usually repeats but may differ in a detail not shown here. Equal entries are not always repeated. The list shows a part of the results. Further columns of the screen follow, without active or inactive calls. For part of these data: The list favours compounds with an active or inconclusive main result.

One test can be described thus: PubChem AID 1586. As to conditions: yeast two-hybrid polyglutamine protein interaction, reporter readout; measured here: averaged growth delta OD.
`OCCN(CCO)c1nc(N2CCCCC2)c2nc(N(CCO)CCO)nc(N3CCCCC3)c2n1` displayed a signal change (36 h minus 0 h) of 0.215.
The same measure, in the same setting: with `Cc1onc(-c2ccccc2Cl)c1C(=O)N[C@@H]1C(=O)N2[C@@H]1SC(C)(C)[C@@H]2C(=O)O` the figure was 0.0702.
With `C[C@]12C=CC(=O)C=C1CCC1C2C(=O)C[C@@]2(C)C1CC[C@]2(O)C(=O)CO` (some centres not stated), the signal change (36 h minus 0 h) turned out to be 0.0526.
`C1CNCCN1` displayed a signal change (36 h minus 0 h) of 0.0139.
Same read-out and setting: in the case of `NC(N)=NCCC[C@@H](NC(=O)[C@@H](N)Cc1ccc(O)cc1)C(=O)O` it was 0.103; in that of `Fc1ccc(C(c2ccccc2)(c2ccccc2F)n2ccnc2)cc1` (configuration not stated), 0.0961 and 0.256.
Still for that read-out and setting: in the case of `CCCCCCCCCCCCCCCC(=O)OC/C=C(C)/C=C/C=C(C)/C=C/C1=C(C)CCCC1(C)C` it was 0.346; in that of `CN1C(CC(=O)c2ccccc2)CCCC1CC(O)c1ccccc1` (configuration not stated), 0.181.
On to `CCN(CC)CCOCCOC(=O)C1(c2ccccc2)CCCC1`, for which the signal change (36 h minus 0 h) came to 0.126.
Same read-out and setting: with `CCCCc1oc2ccccc2c1C(=O)c1cc(I)c(OCCN(CC)CC)c(I)c1` the figure was -0.0135; with `C=CCc1ccc(O)c(OC)c1`, 0.136; with `CCN(Cc1ccncc1)C(=O)C(CO)c1ccccc1` (configuration not stated), 0.175.
On the same count and under the same terms, with `Cc1c(N)c(=O)n(-c2ccccc2)n1C` the figure was 0.197.
Same read-out and setting: with `O=C(OCc1ccccc1)c1ccccc1` the figure was 0.193.
With `C[C@]12C=CC(=O)C=C1CCC1C3C[C@@H](O)[C@](O)(C(=O)CO)[C@@]3(C)C[C@H](O)[C@@]12F` (some centres not stated), the signal change (36 h minus 0 h) turned out to be 0.199.
On the same count and under the same terms, in the case of `COc1ccc(CCN2CCC(Nc3nc4ccccc4n3Cc3ccc(F)cc3)CC2)cc1` it was 0.259; in that of `COc1cc(OC)c2ccc(=O)oc2c1`, 0.158; in that of `CC(=O)OCC(=O)[C@@]12OC(C)(C)O[C@@H]1C[C@H]1C3C[C@H](F)C4=CC(=O)C=CC4(C)[C@@]3(F)[C@@H](O)C[C@@]12C` (some centres not stated), 0.112.
The same measure, in the same setting: with `COc1ccc2c(c1)c(CC(=O)OCC(=O)O)c(C)n2C(=O)c1ccc(Cl)cc1` the figure was 0.166; with `CN1CCN(C(c2ccccc2)c2ccc(Cl)cc2)CC1` (configuration not stated), 0.19; with `CC1Cc2ccccc2N1NC(=O)c1ccc(Cl)c(S(N)(=O)=O)c1` (configuration not stated), 0.092.
Same read-out and setting: with `NC[C@@H]1O[C@H](O[C@H]2[C@@H](O)[C@H](O[C@@H]3[C@@H](O)[C@H](N)C[C@H](N)[C@H]3O[C@@H]3O[C@H](CO)[C@@H](O)C[C@H]3N)O[C@@H]2CO)[C@H](N)[C@@H](O)[C@@H]1O[C@H]1O[C@H](CO)[C@@H](O)[C@H](O)[C@@H]1O` the figure was 0.243.
Compound `NC(=O)c1cnccn1` came in with a signal change (36 h minus 0 h) of 0.137.
The compound `C[C@@H]1O[C@@H](OC[C@H]2O[C@@H](Oc3c(-c4ccc(O)c(O)c4)oc4cc(O)cc(O)c4c3=O)[C@H](O)[C@@H](O)[C@@H]2O)[C@H](O)[C@H](O)[C@H]1O` registered a signal change (36 h minus 0 h) of 0.318.
Still for that read-out and setting: in the case of `NC(=O)c1ncn([C@@H]2O[C@H](CO)[C@@H](O)[C@H]2O)c1O` it was 0.0461.
On the same count and under the same terms, with `NS(=O)(=O)c1cc2c(cc1Cl)NC(C1CC3C=CC1C3)NS2(=O)=O` (configuration not stated) the figure was 0.154; with `CN(Cc1cc(Br)cc(Br)c1N)C1CCCCC1`, 0.113; with `CCCNCC(O)COc1ccccc1C(=O)CCc1ccccc1` (configuration not stated), 0.15.
In turn, `C1CCC(C(CC2CCCCN2)C2CCCCC2)CC1` (configuration not stated) yielded a signal change (36 h minus 0 h) of 0.0694.
In the case of `CC12CC[C@@H]3c4ccc(O)cc4CCC3[C@@H]1CCC2=O` (some centres not stated), the signal change (36 h minus 0 h) turned out to be 0.076.
On the same count and under the same terms, with `CC(=O)OCC(=O)[C@@]1(O)[C@H](OC(C)=O)CC2C3CCC4=CC(=O)C=C[C@]4(C)[C@@]3(F)[C@@H](O)C[C@@]21C` (some centres not stated) the figure was 0.126; with `COc1c2occc2c(OC)c2c(=O)cc(C)oc12`, 0.361.
The same measure, in the same setting: in the case of `O=c1n(CCCN2CCN(c3cccc(Cl)c3)CC2)nc2ccccn12` it was 0.0592; in that of `O=C1C(CCS(=O)c2ccccc2)C(=O)N(c2ccccc2)N1c1ccccc1` (configuration not stated), 0.163; in that of `CCN1CCCC1CNC(=O)c1cc(S(N)(=O)=O)ccc1OC` (configuration not stated), 0.0625.
The same measure, in the same setting: with `N=c1nc(N2CCCCC2)cc(N)n1O` the figure was 0.0471; with `COc1cc(Cc2cnc(N)nc2N)cc(OC)c1OC`, 0.17.
`CC[C@@H](CO)NCCN[C@@H](CC)CO` returned a signal change (36 h minus 0 h) of 0.154.
Still for that read-out and setting: in the case of `Cc1ccc(C(C)C)cc2c(C)ccc1-2` it was 0.343.

Another test in a line: enhancers of SMN2 over SMN1 splicing, cell-based, SMN2/SMN1 luciferase reporters (AID 1598). As to conditions: SMN2 vs SMN1 luciferase splicing reporter cells, at 10 µM; SMN1 luciferase ratio: measured here: SMN1 luciferase reporter average; SMN2 luciferase ratio: measured here: SMN2 luciferase reporter average, stronger effect = higher value. In general terms: A reporter such as luciferase makes a cellular process visible.
Take `OCCN(CCO)c1nc(N2CCCCC2)c2nc(N(CCO)CCO)nc(N3CCCCC3)c2n1`: the SMN2 luciferase ratio came out at 1.01 and the SMN1 luciferase ratio amounted to 0.91.
The like results for `Cc1onc(-c2ccccc2Cl)c1C(=O)N[C@@H]1C(=O)N2[C@@H]1SC(C)(C)[C@@H]2C(=O)O` were, in that order, 0.93 and 0.87.
The corresponding values for `C[C@]12C=CC(=O)C=C1CCC1C2C(=O)C[C@@]2(C)C1CC[C@]2(O)C(=O)CO` (some centres not stated) are 0.93 and 0.89.
The like results for `C1CNCCN1` were, in that order, 0.88 and 0.92.
On to `NC(N)=NCCC[C@@H](NC(=O)[C@@H](N)Cc1ccc(O)cc1)C(=O)O`, for which the SMN1 luciferase ratio worked out at 0.99 and the SMN2 luciferase ratio was 0.92.
Consider `Fc1ccc(C(c2ccccc2)(c2ccccc2F)n2ccnc2)cc1` (configuration not stated), for which the SMN1 luciferase ratio was 0.84 and 0.91; the SMN2 luciferase ratio was 0.88 and 0.92.
Take `CCCCCCCCCCCCCCCC(=O)OC/C=C(C)/C=C/C=C(C)/C=C/C1=C(C)CCCC1(C)C`: the SMN1 luciferase ratio came to 0.84 and the SMN2 luciferase ratio is 0.92.
The corresponding values for `CN1C(CC(=O)c2ccccc2)CCCC1CC(O)c1ccccc1` (configuration not stated) are 0.83 and 0.85.
As for `CCN(CC)CCOCCOC(=O)C1(c2ccccc2)CCCC1`, the SMN2 luciferase ratio is 0.62 and the SMN1 luciferase ratio came to 0.61.
Take `CCCCc1oc2ccccc2c1C(=O)c1cc(I)c(OCCN(CC)CC)c(I)c1`: the SMN2 luciferase ratio is 0.82 and the SMN1 luciferase ratio was found to be 0.9.
With `C=CCc1ccc(O)c(OC)c1`, the SMN2 luciferase ratio worked out at 0.86 and the SMN1 luciferase ratio was 0.87.
The corresponding values for `CCN(Cc1ccncc1)C(=O)C(CO)c1ccccc1` (configuration not stated) are 0.79 and 0.84.
The like results for `Cc1c(N)c(=O)n(-c2ccccc2)n1C` were, in that order, 0.89 and 0.86.
With `O=C(OCc1ccccc1)c1ccccc1`, the SMN2 luciferase ratio stood at 0.81 and the SMN1 luciferase ratio is 0.79.
The like results for `C[C@]12C=CC(=O)C=C1CCC1C3C[C@@H](O)[C@](O)(C(=O)CO)[C@@]3(C)C[C@H](O)[C@@]12F` (some centres not stated) were, in that order, 1.05 and 0.99.
The like results for `COc1ccc(CCN2CCC(Nc3nc4ccccc4n3Cc3ccc(F)cc3)CC2)cc1` were, in that order, 0.84 and 1.03.
The like results for `COc1cc(OC)c2ccc(=O)oc2c1` were, in that order, 0.8 and 0.91.
As to `CC(=O)OCC(=O)[C@@]12OC(C)(C)O[C@@H]1C[C@H]1C3C[C@H](F)C4=CC(=O)C=CC4(C)[C@@]3(F)[C@@H](O)C[C@@]12C` (some centres not stated), the SMN1 luciferase ratio worked out at 0.86 and the SMN2 luciferase ratio came to 0.77.
The corresponding values for `COc1ccc2c(c1)c(CC(=O)OCC(=O)O)c(C)n2C(=O)c1ccc(Cl)cc1` are 0.88 and 0.96.
For `CN1CCN(C(c2ccccc2)c2ccc(Cl)cc2)CC1` (configuration not stated), the SMN1 luciferase ratio was found to be 0.87 and the SMN2 luciferase ratio was 0.99.
The corresponding values for `CC1Cc2ccccc2N1NC(=O)c1ccc(Cl)c(S(N)(=O)=O)c1` (configuration not stated) are 0.95 and 0.9.
The corresponding values for `NC[C@@H]1O[C@H](O[C@H]2[C@@H](O)[C@H](O[C@@H]3[C@@H](O)[C@H](N)C[C@H](N)[C@H]3O[C@@H]3O[C@H](CO)[C@@H](O)C[C@H]3N)O[C@@H]2CO)[C@H](N)[C@@H](O)[C@@H]1O[C@H]1O[C@H](CO)[C@@H](O)[C@H](O)[C@@H]1O` are 0.89 and 1.02.
For the compound `NC(=O)c1cnccn1`, the SMN2 luciferase ratio was found to be 0.99 and the SMN1 luciferase ratio is 0.9.
The corresponding values for `C[C@@H]1O[C@@H](OC[C@H]2O[C@@H](Oc3c(-c4ccc(O)c(O)c4)oc4cc(O)cc(O)c4c3=O)[C@H](O)[C@@H](O)[C@@H]2O)[C@H](O)[C@H](O)[C@H]1O` are 0.74 and 0.88.
On to `NC(=O)c1ncn([C@@H]2O[C@H](CO)[C@@H](O)[C@H]2O)c1O`, for which the SMN2 luciferase ratio was determined as 0.92 and the SMN1 luciferase ratio came to 1.04.
The like results for `NS(=O)(=O)c1cc2c(cc1Cl)NC(C1CC3C=CC1C3)NS2(=O)=O` (configuration not stated) were, in that order, 0.91 and 0.92.
The corresponding values for `CN(Cc1cc(Br)cc(Br)c1N)C1CCCCC1` are 0.98 and 0.88.
The corresponding values for `CCCNCC(O)COc1ccccc1C(=O)CCc1ccccc1` (configuration not stated) are 0.9 and 0.92.
For `C1CCC(C(CC2CCCCN2)C2CCCCC2)CC1` (configuration not stated), the SMN1 luciferase ratio was determined as 0.91 and the SMN2 luciferase ratio came to 0.81.
In the case of `CC12CC[C@@H]3c4ccc(O)cc4CCC3[C@@H]1CCC2=O` (some centres not stated), the SMN1 luciferase ratio was found to be 0.92 and the SMN2 luciferase ratio was 0.81.
The corresponding values for `CC(=O)OCC(=O)[C@@]1(O)[C@H](OC(C)=O)CC2C3CCC4=CC(=O)C=C[C@]4(C)[C@@]3(F)[C@@H](O)C[C@@]21C` (some centres not stated) are 0.96 and 0.95.
Take `COc1c2occc2c(OC)c2c(=O)cc(C)oc12`: the SMN2 luciferase ratio amounted to 0.92 and the SMN1 luciferase ratio was 1.
The corresponding values for `O=c1n(CCCN2CCN(c3cccc(Cl)c3)CC2)nc2ccccn12` are 0.81 and 0.89.
The corresponding values for `O=C1C(CCS(=O)c2ccccc2)C(=O)N(c2ccccc2)N1c1ccccc1` (configuration not stated) are 0.95 and 0.87.
The like results for `CCN1CCCC1CNC(=O)c1cc(S(N)(=O)=O)ccc1OC` (configuration not stated) were, in that order, 0.88 and 0.82.
In the case of `N=c1nc(N2CCCCC2)cc(N)n1O`, the SMN1 luciferase ratio was 0.9 and the SMN2 luciferase ratio stood at 0.93.
The corresponding values for `COc1cc(Cc2cnc(N)nc2N)cc(OC)c1OC` are 1.01 and 1.
The like results for `CC[C@@H](CO)NCCN[C@@H](CC)CO` were, in that order, 0.91 and 0.92.
Consider `Cc1ccc(C(C)C)cc2c(C)ccc1-2`, for which the SMN1 luciferase ratio was found to be 0.85 and the SMN2 luciferase ratio is 0.86.
